# Results are given in words; binding and its absence hold for the method and conditions named. Binding seen in cells or lysates may run through a third protein. Some results given as binding are weak or reduced against the parent protein; the word gives no strength. Where a sequence is shown, tags or fusion partners need not be part of it.
# By UniProt entry, the sequences of proteins in these tests, tags left out.
# UniProt P62835: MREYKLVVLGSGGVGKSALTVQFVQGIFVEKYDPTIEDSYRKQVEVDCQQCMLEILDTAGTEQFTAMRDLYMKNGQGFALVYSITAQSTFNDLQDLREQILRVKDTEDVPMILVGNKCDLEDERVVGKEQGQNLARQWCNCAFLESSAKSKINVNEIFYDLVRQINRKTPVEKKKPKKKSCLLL
# Biological target: T1, GST-tagged fusion protein corresponding to residues 788-884 of human Ral GDS-Rap binding domain (human) (UniProt Q12967)
# T1 sequence: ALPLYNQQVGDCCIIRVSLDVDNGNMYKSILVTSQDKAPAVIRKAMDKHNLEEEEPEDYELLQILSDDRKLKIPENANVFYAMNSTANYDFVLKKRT
# Assay: pull-down; GST-RalGDS-RBD immobilized on glutathione-agarose, incubated with cell lysates (50 mM Tris-HCl pH 7.4, 0.5 M NaCl, 1% NP40, 2.5 mM MgCl2, 10% glycerol) at 4°C for 45 minutes; captured Rap1A detected by anti-Rap1A Western blot; C2C12 and MC3T3-E1 cells treated with osteogenic inducers (AA/β-GP) for the indicated times; only the target purified
substance,measurement,value
Rap1A (active GTP-bound form) (from UniProt P62835 1-184),binding,binds
